Results are given in words; binding and its absence hold for the method and conditions named. Some results given as binding are weak or reduced against the parent protein; the word gives no strength. Sequences can lack the tags named with a protein.
Target: CD5 antigen (epitope competition experiment of Example 1) (UniProt P06127)
Test: flow cytometry sandwich: hFc antibody premixed with CD5 antigen, added to FHVH1 CAR-T cells, APC anti-human Fc

Amino acid sequences for entries named in this document (tags omitted). Residues count along the entry.
UniProt P06127, residues 25-371: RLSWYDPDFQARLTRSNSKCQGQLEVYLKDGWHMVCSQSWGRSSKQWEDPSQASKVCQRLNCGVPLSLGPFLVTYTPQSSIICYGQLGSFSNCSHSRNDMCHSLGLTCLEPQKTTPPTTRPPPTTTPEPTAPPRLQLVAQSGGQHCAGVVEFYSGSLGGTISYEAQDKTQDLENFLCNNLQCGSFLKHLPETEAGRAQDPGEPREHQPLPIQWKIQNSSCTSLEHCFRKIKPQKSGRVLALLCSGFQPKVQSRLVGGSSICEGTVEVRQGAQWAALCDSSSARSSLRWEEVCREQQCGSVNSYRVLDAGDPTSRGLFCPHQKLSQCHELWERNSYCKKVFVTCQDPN

B1: FHVH3 antibody with human Fc tag (Fc fusion, not shown: a dimerising Fc or GST)
chain: QVQLVQSGAEVKKPGSSVKVSCKASGGTFSNYAISWVRQAPGQGLEWMGWISAYNGDTKYAQRLQGRVTMTTDTSTSTAYMELRNLRSDDTAVYYCARYESMSGQDIWGQGTLVTVSS
binding: binds

From patent US20240050568A1 (NANJING IASO BIOTECHNOLOGY, published 2024)
